Reference: paper PMC3902906
The exact form of at least one protein or probe is not confirmed. For part of these data: No signal at the amounts used counts as a negative. For part of these data: A weaker result is weaker than the reference pair of the same experiment.

Assays:
[1] = molecular target: CsoR (CsoRSl) wild type (Streptomyces lividans 1326) (UniProt D6EK73); experiment: CD; conditions: SEC: same buffer, recombinant protein
[2] = molecular target: CsoRSl Q81A (Streptomyces lividans 1326) (UniProt D6EK73); experiment: ITC; conditions: apo; ITC: 10 mM HEPES, 150 mM NaCl, pH 7.5, 25 C, 100 uM DNA into 10 uM CsoR tetramer; recombinant protein
[3] = molecular target: CsoRSl R57A (Streptomyces lividans 1326) (UniProt D6EK73); experiment: ITC; conditions: apo; ITC: 10 mM HEPES, 150 mM NaCl, pH 7.5, 25 C, 100 uM DNA into 10 uM CsoR tetramer; recombinant protein
[4] = molecular target: CsoRSl Q81A (Streptomyces lividans 1326) (UniProt D6EK73); experiment: EMSA; conditions: apo, 10 uM protein, 1 uM DNA; EMSA: same buffer, room temperature, 30 min, 6% PAGE in TBE; recombinant protein
[5] = molecular target: CsoRSl R54A (Streptomyces lividans 1326) (UniProt D6EK73); experiment: EMSA; conditions: apo, no clear band shift; EMSA: same buffer, room temperature, 30 min, 6% PAGE in TBE; recombinant protein
[6] = molecular target: CsoRSl R57A (Streptomyces lividans 1326) (UniProt D6EK73); experiment: EMSA; conditions: apo, 10 uM protein, 1 uM DNA; EMSA: same buffer, room temperature, 30 min, 6% PAGE in TBE; recombinant protein
[7] = molecular target: CsoRSl Q81A (Streptomyces lividans 1326) (UniProt D6EK73); experiment: size-exclusion chromatography; conditions: apo, free DNA peak only; SEC: same buffer; recombinant protein
[8] = molecular target: CsoRSl R129A (Streptomyces lividans 1326) (UniProt D6EK73); experiment: size-exclusion chromatography; conditions: apo, clear 2:1 complex; SEC: same buffer; recombinant protein
[9] = molecular target: CsoRSl R132A (Streptomyces lividans 1326) (UniProt D6EK73); experiment: size-exclusion chromatography; conditions: apo, 2:1 complex, lower complex/free ratio; SEC: same buffer; recombinant protein
[10] = molecular target: CsoRSl R54A (Streptomyces lividans 1326) (UniProt D6EK73); experiment: size-exclusion chromatography; conditions: apo, no complex peak; SEC: same buffer; recombinant protein
[11] = molecular target: CsoRSl R57A (Streptomyces lividans 1326) (UniProt D6EK73); experiment: size-exclusion chromatography; conditions: apo, free DNA peak only; SEC: same buffer; recombinant protein

CGGACAAATACCCCTGGTGGGTATATATGG (double strand) [csoR-EXT]
binding result ([1]; Cu(I)-bound, no change at 263.5 nm): no binding | binding result ([1]; apo, 263.5 nm increase saturates at 2:1): binds | binding result [2]: no binding | binding result [3]: no binding | binding result [4]: no binding | binding result [5]: binds more weakly | binding result [6]: no binding | binding result [7]: no binding | binding result [8]: binds | binding result [9]: binds more weakly | binding result [10]: binds more weakly | binding result [11]: no binding
